Percent effect of library compounds

Source: ChEMBL document CHEMBL3988442, “University of Dundee, Small-Polar-MMV Screening Library” (2021).

Each number is a percent effect as filed. How 0% and 100% were set is not recorded. Most values in the screen are low, and negative values occur. The compounds are a random part of those screened. Two or more numbers in one place are separate tests of the same structure; such repeats can differ widely.

T. brucei: 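Whole-parasite assay of Trypanosoma brucei over 72 hours; the read-out is not stated. Tested at 30 µM. Higher reads as stronger inhibition (inferred: compounds with an IC50 in retests scored well above the rest). Values scatter widely below zero; nearly all retest evidence comes from the higher of the two concentrations used. Size under these conditions: about 64,000 compounds, about 940 of them at 50% or above in at least one test.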
Toxoplasma: 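Assay of Toxoplasma gondii numbers, read through their beta-galactosidase reporter with a colour substrate. Compounds at 10 µM. Higher reads as fewer parasites (inferred from which compounds were picked for retests). Of about 67,000 compounds tested this way, about 260 (0.38%) reached 50% or more in at least one test.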
Leishmania in macrophages: 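Cell assay of Leishmania donovani living inside macrophages; the read-out is not stated. Concentration: 30 µM. Direction is inferred from retests: higher values go with stronger inhibition. Size under these conditions: about 69,000 compounds, about 1,000 of them at 50% or above in at least one test.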

{"compound": "Cc1noc(CN(CCc2cccs2)Cc2cccc(C#N)c2)n1", "T. brucei": -13.59, "Toxoplasma": 0.8526, "Leishmania in macrophages": 33.22}
{"compound": "O=C(NCCc1ccncc1)c1ccc(S(=O)(=O)NC2CCC2)cc1", "T. brucei": -69.22, "Toxoplasma": 12.9, "Leishmania in macrophages": 15.54}
{"compound": "CC(C)c1nnc(NC(=O)N2CCCC2c2ccncc2)s1", "stereo": "stereo not drawn", "T. brucei": -29.58, "Toxoplasma": -4.224, "Leishmania in macrophages": -11.71}
{"compound": "Cc1ccc(C(=O)NCc2cc(F)ccc2N2CCCN(C)CC2)o1", "T. brucei": -37, "Toxoplasma": 28.84, "Leishmania in macrophages": 19.75}
{"compound": "COc1ccccc1C1(CNc2cn[nH]c(=O)c2Cl)CC1", "T. brucei": -8.039, "Toxoplasma": -15.82, "Leishmania in macrophages": 25.81}
{"compound": "NC1(c2nc(-c3ccccc3)cc(=O)[nH]2)CCCC1", "T. brucei": -57.96, "Toxoplasma": 4.289, "Leishmania in macrophages": -12.81}
{"compound": "COCC(=O)N[C@H](C)c1c(-c2ccc(Cl)cc2)noc1C(=O)O", "T. brucei": -10.79, "Toxoplasma": -5.174, "Leishmania in macrophages": 29.95}
{"compound": "CC(C)c1ccc(O)c(C(=O)NCc2cc[nH]n2)c1", "T. brucei": -27.1, "Toxoplasma": 0.1003, "Leishmania in macrophages": 0.3481}
{"compound": "CN1Cc2cnn(CC3CCCC3)c2C(COCC2CC2)C1.O=C(O)C(F)(F)F.O=C(O)C(F)(F)F", "stereo": "stereo not drawn", "T. brucei": -24.95, "Toxoplasma": 4.956, "Leishmania in macrophages": -22.63}
{"compound": "O=C(O)C(F)(F)F.[H][C@]12CCN(C(=O)COC)[C@@]1([H])CC[C@@H](COCc1ccncc1)O2", "Toxoplasma": 1.99, "Leishmania in macrophages": 15.61}
{"compound": "Cc1cncc(C(=O)N2CCC3(CC2)NC(=O)CC3c2ccccc2)c1.O=C(O)C(F)(F)F", "stereo": "stereo not drawn", "T. brucei": -15.03, "Toxoplasma": 7.557, "Leishmania in macrophages": 4.194}
{"compound": "O=C(CC1CC1)NCc1cn2c(n1)CN(Cc1nccs1)CC2.O=C(O)C(F)(F)F", "T. brucei": -17.28, "Toxoplasma": 25.65, "Leishmania in macrophages": -25.46}
{"compound": "CCOC(=O)[C@H]1CNC[C@H]1C(=O)OCC.Cl", "Toxoplasma": 6.437, "Leishmania in macrophages": 26.02}
{"compound": "O=C(c1cccc(-n2cnnn2)c1)N1CCC2(CC1)OCCO2", "T. brucei": -6.106, "Toxoplasma": -14.82, "Leishmania in macrophages": -10.83}
{"compound": "CC(=O)Nc1nc(CN2CCn3c(C)nnc3C2)cs1", "T. brucei": -16.16, "Toxoplasma": 10.6, "Leishmania in macrophages": -19.78}
{"compound": "c1cc(CN2CCC(c3nnc4n3CCCCC4)CC2)c2nonc2c1", "T. brucei": -56.89, "Toxoplasma": 1.741, "Leishmania in macrophages": -6.569}
{"compound": "COc1ccccc1OC1CCN(C(=O)c2cnc(C)s2)CC1", "T. brucei": -9.648, "Toxoplasma": -11.52, "Leishmania in macrophages": 25.35}
{"compound": "COc1cccc2ncn(C(C)Cn3cccn3)c(=O)c12", "stereo": "stereo not drawn", "T. brucei": 27.78, "Toxoplasma": -10.93, "Leishmania in macrophages": 13.22}
{"compound": "OCCc1cc(C2CCCN2c2ncccn2)n[nH]1", "stereo": "stereo not drawn", "T. brucei": -17.88, "Toxoplasma": 11.84, "Leishmania in macrophages": -30.65}
{"compound": "[H][C@@]12CNC(=O)N1CCN(Cc1ccnc3ccccc13)C2", "T. brucei": 13.21, "Toxoplasma": 2.094, "Leishmania in macrophages": 16.32}
{"compound": "Cc1nc(CN2CCC(Oc3ccc(F)cc3C)(C(=O)O)CC2)co1", "T. brucei": -43.13, "Toxoplasma": -0.05634, "Leishmania in macrophages": 10.75}
{"compound": "Cc1nc(C)c(CC(=O)NCc2ccc(F)cc2F)s1", "T. brucei": 1.141, "Toxoplasma": 28.83, "Leishmania in macrophages": "22.26 & -1.389"}
{"compound": "CNC(=O)[C@@H](c1ccccc1F)N1CCC[C@H]1C(=O)NC1CCOCC1.Cl", "T. brucei": 3.911, "Toxoplasma": 5.419, "Leishmania in macrophages": -5.009}
{"compound": "CN1CCC(N[C@@H]2CO[C@H](CNC(=O)C3CCCC3)[C@H]2O)CC1", "T. brucei": -4.174, "Toxoplasma": 4.772, "Leishmania in macrophages": 0.7248}